# Test results: PubChem BioAssay AID2685 (National Center for Advancing Translational Sciences (NCATS), 2010)
# Some of the results follow. These are further read-outs of the screen, such as a control signal, another cell line or another target. No call is given for them. Most of these compounds were active or inconclusive in the main read-out, so they are no random draw. The note in brackets gives the kind of curve behind each potency; many fits are weak.
# Assay: qHTS Assay for Lipid Storage Modulators in Drosophila S3 Cells;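 as to cell number change: cells counted by Cell Tracker Red CMTPX staining in the red channel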
# Conditions: BODIPY lipid droplet fluorescence, 18-24 h; for cell number change: measured here: cell count max response, cells fed with added oleic acid
# Outline: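 Laser-scanning cytometry quantifies lipid droplet accumulation (500–530 nm total intensity; droplet/cell object ratio) in oleic acid-fed (400 uM added) Drosophila S3 cells treated with a concentration series. 20 uM Triacsin C defined 100% inhibition.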
# [1] = measured here: cell number channel AC50, cells fed with added oleic acid
# [2] = measured here: lipid fluorescence (Fed channel) AC50, cells fed with added oleic acid
smiles,measurement,setting,value
Cn1c(CCCOc2ccc(Cl)cc2Cl)nnc1SCC(=O)Nc1ccc(F)c(Cl)c1,cell number change,,18.3%
same,AC50,[1],"0.164 µM [falling, full curve, poor fit]"
CCOC(=O)N1CCN(c2cc(N3CCN(CC)CC3)c(F)cc2[N+](=O)[O-])CC1C (centres undefined),cell number change,,125%
O=C(NCCc1ccc(F)cc1)C1CCN(C(=O)Nc2ccccc2)CC1,cell number change,,-29.2%
same,AC50,[2],"0.651 µM [falling, full curve]"
Cc1ccc(S(=O)(=O)/N=C(/NC(=S)Nc2ccccc2)c2ccccc2)cc1,cell number change,,39.5%
same,AC50,[1],"7.31 µM [rising, partial curve, poor fit]"
CC(Nc1nc(-c2ccncc2)nc2ccccc12)c1ccccc1 (centres undefined),cell number change,,18%
same,AC50,[1],"0.651 µM [rising, full curve, poor fit]"
COc1ccc(CN(C)c2ccc(S(=O)(=O)N3CCN(C)CC3)cc2[N+](=O)[O-])cc1OC,cell number change,,-10.3%
same,AC50,[1],"2.31 µM [falling, partial curve]"
same,AC50,[2],"1.46 µM [falling, full curve]"
Cn1cc(C(CC(=O)O)C(=O)O)c2ccccc21 (centres undefined),cell number change,,-50.8%
same,AC50,[1],"0.184 µM [falling, full curve]"
N#C/C(C(=O)Nc1ccc(Cl)cc1)=C(/S)Nc1ccccc1,cell number change,,11.1%
same,AC50,[1],"4.11 µM [rising, single point]"
CCN(CC)CCCCCCCCOC(=O)c1cc(OC)c(OC)c(OC)c1,cell number change,,8.89%
same,AC50,[2],"5.8 µM [falling, single point]"
CCN1CCN(CCn2c(=S)[nH]c3ccccc3c2=O)CC1,cell number change,,-5.42%
same,AC50,[2],"18.4 µM [falling, partial curve]"
CCn1c(SCC(=O)Nc2nnc(C)s2)nnc1-c1ccco1,cell number change,,-1.18%
same,AC50,[2],"0.231 µM [falling, full curve, poor fit]"
COc1ccc(C(=S)N2CCCCC2)cc1Br,cell number change,,-6.05%
Cc1ccc(N2NC(C)(c3cccs3)NC2=S)cc1 (centres undefined),cell number change,,34.8%
same,AC50,[1],"3.66 µM [rising, partial curve]"
Cc1c(N=C/C=C2\N(C)c3ccccc3C2(C)C)c(=O)n(-c2ccccc2)n1C,cell number change,,1.71%
same,AC50,[2],"0.00461 µM [rising, full curve, poor fit]"
Cc1sc2ncnc(Nc3ccccc3)c2c1C,cell number change,,7.41%
same,AC50,[2],"4.61 µM [rising, full curve]"
CCCn1c(OC)nc2c1c(=O)n(C)c(=O)n2C,cell number change,,27.6%
same,AC50,[1],"0.731 µM [falling, full curve]"
same,AC50,[2],"6.51 µM [falling, single point]"
COc1ccc(-c2nsc3c(N4CCN(S(=O)(=O)c5ccccc5)CC4)ncnc23)cc1,cell number change,,-4.1%
O/N=C/c1cc(Br)ccc1OCc1cccc(F)c1,AC50,[2],"25.9 µM [falling, single point]"
Cc1nc2c3ccccc3nc(NNC(=O)CCC(=O)NCCN3CCN(c4ccccc4)CC3)n2n1,cell number change,,-17.9%
same,AC50,[2],"29.1 µM [falling, single point]"
Fc1ccc(NC(=S)N2CCN(c3cccc(C(F)(F)F)c3)CC2)cc1,cell number change,,-7.32%
same,AC50,[1],"2.06 µM [rising, partial curve]"
same,AC50,[2],"20.6 µM [falling, single point]"
CCOc1ccc(Cl)cc1S(=O)(=O)N1CCN(c2ccc(F)cc2)CC1,AC50,[1],"0.58 µM [rising, full curve]"
O=C(Nc1ccc(F)cc1)c1ccccc1Oc1ccc(C(F)(F)F)cc1[N+](=O)[O-],cell number change,,-28.7%
same,AC50,[2],"29.1 µM [falling, partial curve, poor fit]"
O=C(COC(=O)c1ccccc1-n1cnnn1)c1ccccc1,cell number change,,-5.02%
same,AC50,[2],"18.4 µM [rising, single point]"
N#Cc1cc2c(nc1SCC(=O)Nc1sc3c(c1C#N)CCC3)CCC2,cell number change,,-11.6%
same,AC50,[2],"6.51 µM [falling, single point]"
O=C(Nc1ccccc1N1CCN(C(=O)c2ccc(Cl)cc2)CC1)c1cccnc1,cell number change,,12.5%
same,AC50,[2],"29.1 µM [rising, single point]"
c1cc2c(cc1C1CCCCC1)c1c3n2CCCNC3CCC1 (centres undefined),cell number change,,-76.7%
same,AC50,[1],"23.1 µM [falling, single point]"
same,AC50,[2],"18.4 µM [falling, single point]"
O=C(O)CCCNc1ccc(S(=O)(=O)N2CCCCC2)cc1,cell number change,,-17.7%
same,AC50,[1],"0.0082 µM [falling, full curve, poor fit]"
same,AC50,[2],"3.26 µM [falling, full curve, poor fit]"
CCN(CC)CCCNC(=O)CSc1nc(C)cc(C)n1,cell number change,,14.8%
CCC(NC(=S)NCc1ccccc1)C(=O)O (centres undefined),cell number change,,19.1%
same,AC50,[2],"29.1 µM [rising, single point]"
COc1cccc(-c2ccc3c(N)c(C(=O)NC4CC4)sc3n2)c1,cell number change,,-16.4%
same,AC50,[2],"4.11 µM [rising, full curve, poor fit]"
COC(=O)[C@H](Cc1ccccc1)NC(=O)O[C@@H]1C(=O)c2cc(OC)ccc2O[C@H]1c1ccc(OC)c(Br)c1,cell number change,,2.73%
COc1cc(CC(=O)OCC(=O)Nc2ccc(N3CCOCC3)cc2)cc(OC)c1OC,cell number change,,17.6%
CCc1ccc(-c2cc(C)no2)cc1S(=O)(=O)N1CC(=O)Nc2ccccc21,AC50,[2],"2.59 µM [falling, partial curve]"
Cc1nn(Cc2c(Cl)cccc2Cl)c(C)c1NC(=O)CCCn1nc([N+](=O)[O-])c(Cl)c1C,cell number change,,-10.5%
same,AC50,[2],"20.6 µM [falling, single point]"
COc1ccccc1C(=O)NCC(=O)NCCSc1ccc(Br)cc1,cell number change,,-0.497%
same,AC50,[1],"6.51 µM [rising, single point]"
O=C(CNS(=O)(=O)c1ccc2ccccc2c1)OCc1nnc(-c2ccccc2)o1,AC50,[2],"0.146 µM [rising, full curve, poor fit]"
Cc1cccc(OCCCCc2c(C)n[nH]c2C)c1,cell number change,,-58.1%
same,AC50,[1],"29.1 µM [falling, single point]"
same,AC50,[2],"29.1 µM [falling, single point]"
Cc1ccc(C(c2sc3nc(C)nn3c2O)N2CCN(c3ccccc3)CC2)cc1 (centres undefined),cell number change,,-40.5%
same,AC50,[1],"32.6 µM [falling, partial curve, poor fit]"
same,AC50,[2],"29.1 µM [falling, partial curve, poor fit]"
CCOc1ccc(NCc2nc3ccccc3n2CCOc2ccccc2)cc1,cell number change,,31.5%
same,AC50,[1],"6.51 µM [rising, partial curve]"
same,AC50,[2],"7.31 µM [rising, partial curve]"
Cn1c(=O)cc(OCCCC(=O)NCCN2CCN(c3ccccc3F)CC2)c2ccccc21,cell number change,,-0.552%
same,AC50,[2],"7.31 µM [rising, partial curve]"
O=C(CNc1cccc([N+](=O)[O-])c1)N/N=C/c1ccc(F)cc1,cell number change,,-0.221%
same,AC50,[1],"0.92 µM [rising, partial curve, poor fit]"
CS(=O)(=O)c1ccc2nc(NC(=O)c3ccccc3)sc2c1,cell number change,,0.501%
same,AC50,[2],"0.517 µM [rising, single point]"
CCOc1ccc(C(=O)NCC(=O)OCC(=O)N2CCCCC2)cc1,cell number change,,14%
O=C(NCc1cc(C(F)(F)F)cc(C(F)(F)F)c1)C1CC(c2ccccc2[N+](=O)[O-])=NO1 (centres undefined),cell number change,,-13.5%
same,AC50,[2],"1.03 µM [falling, full curve, poor fit]"
CCOC(=O)c1c(S(=O)(=O)NCC(=O)N2CCN(c3ccccc3)CC2)c(C)n(C)c1C,cell number change,,28.7%
same,AC50,[2],"7.31 µM [rising, partial curve]"
CCOC(=O)C(C)(C)NS(=O)(=O)c1ccc(Cl)c([N+](=O)[O-])c1,AC50,[2],"14.6 µM [falling, partial curve]"
CN(C)CCCN1C(=O)C(O)=C(C(=O)c2cc3ccccc3o2)C1c1ccccc1 (centres undefined),cell number change,,-33.5%
same,AC50,[1],"29.1 µM [falling, single point]"
same,AC50,[2],"0.231 µM [falling, full curve, poor fit]"
COCc1cc(C)nc2sc(C(=O)OC(C)C)c(N)c12,cell number change,,1.26%
same,AC50,[2],"1.64 µM [rising, full curve]"
Cc1cc(C(=O)COC(=O)c2ccccc2Br)c(C)n1CC1CCCO1 (centres undefined),cell number change,,18.6%
same,AC50,[2],"10.3 µM [rising, partial curve, poor fit]"
CC(C)(C)C(=O)NCc1ccc(C(=O)CN2C(=O)NC3(CCCC3)C2=O)s1,AC50,[1],"0.058 µM [falling, full curve, poor fit]"
same,AC50,[2],"18.4 µM [falling, single point]"
CCC(C)NC(=O)CN(c1ccc(OC)cc1)S(=O)(=O)c1ccc(NC(C)=O)cc1 (centres undefined),cell number change,,3.67%
CCOc1cc(/C=N/Nc2cc(C)nc(-n3nc(C)cc3C)n2)ccc1O,cell number change,,-33.8%
same,AC50,[1],"18.4 µM [falling, single point]"
same,AC50,[2],"32.6 µM [falling, single point]"
Cc1nn2c(=O)cc(CSc3nc4ccccc4[nH]3)nc2s1,cell number change,,3.03%
same,AC50,[2],"0.259 µM [rising, full curve, poor fit]"
CC(=O)Nc1ccc(-c2nc3cc(Cl)ccc3o2)cc1,cell number change,,-9.67%
same,AC50,[2],"0.58 µM [rising, single point]"
CCc1nc(SCC(=O)Nc2nnc(CC)s2)c2c(=O)n(C)c(=O)n(C)c2n1,cell number change,,-26.3%
same,AC50,[2],"29.1 µM [falling, single point]"
Nc1nc(Br)c2c(F)cccc2c1-c1ccc(Cl)cc1,cell number change,,-0.287%
O=C(CN(c1ccc([N+](=O)[O-])cc1)S(=O)(=O)c1ccccc1)N1CCCCC1,cell number change,,13.5%
same,AC50,[1],"4.11 µM [rising, partial curve, poor fit]"
CC1Cc2ccccc2N1C(=O)Cn1nc(C(=O)O)c2ccccc2c1=O (centres undefined),cell number change,,0.144%
CC(OC(=O)c1cc2sccc2n1C)C(=O)NCc1ccc2c(c1)OCO2 (centres undefined),cell number change,,-53.4%
same,AC50,[1],"23.1 µM [falling, single point]"
same,AC50,[2],"29.1 µM [falling, single point]"

# Six neighbouring records out of the list so far, for reference:
smiles,measurement,setting,value
CCN(CC)CCCNC(=O)CSc1nc(C)cc(C)n1,cell number change,,14.8%
CCC(NC(=S)NCc1ccccc1)C(=O)O (centres undefined),cell number change,,19.1%
same,AC50,[2],"29.1 µM [rising, single point]"
COc1cccc(-c2ccc3c(N)c(C(=O)NC4CC4)sc3n2)c1,cell number change,,-16.4%
same,AC50,[2],"4.11 µM [rising, full curve, poor fit]"
COC(=O)[C@H](Cc1ccccc1)NC(=O)O[C@@H]1C(=O)c2cc(OC)ccc2O[C@H]1c1ccc(OC)c(Br)c1,cell number change,,2.73%

# A different layout for part of the listing above.
smiles | measurement | setting | value
CCC(NC(=S)NCc1ccccc1)C(=O)O (centres undefined) | cell number change |  | 19.1%
O=C(CN(c1ccc([N+](=O)[O-])cc1)S(=O)(=O)c1ccccc1)N1CCCCC1 | AC50 | [1] | 4.11 µM [rising, partial curve, poor fit]
